# From the supplement of paper PMC12819154, “High-throughput peptide-centric local stability assay extends protein–ligand identification to membrane proteins, tissues and bacteria” (Nature Structural & Molecular Biology, 2025)
# The chains behind the UniProt entries cited, without tags or fusion partners. Where a name states a change or a piece, a line headed by the entry shows the natural chain unless it says otherwise.
# UniProt Q5JR59: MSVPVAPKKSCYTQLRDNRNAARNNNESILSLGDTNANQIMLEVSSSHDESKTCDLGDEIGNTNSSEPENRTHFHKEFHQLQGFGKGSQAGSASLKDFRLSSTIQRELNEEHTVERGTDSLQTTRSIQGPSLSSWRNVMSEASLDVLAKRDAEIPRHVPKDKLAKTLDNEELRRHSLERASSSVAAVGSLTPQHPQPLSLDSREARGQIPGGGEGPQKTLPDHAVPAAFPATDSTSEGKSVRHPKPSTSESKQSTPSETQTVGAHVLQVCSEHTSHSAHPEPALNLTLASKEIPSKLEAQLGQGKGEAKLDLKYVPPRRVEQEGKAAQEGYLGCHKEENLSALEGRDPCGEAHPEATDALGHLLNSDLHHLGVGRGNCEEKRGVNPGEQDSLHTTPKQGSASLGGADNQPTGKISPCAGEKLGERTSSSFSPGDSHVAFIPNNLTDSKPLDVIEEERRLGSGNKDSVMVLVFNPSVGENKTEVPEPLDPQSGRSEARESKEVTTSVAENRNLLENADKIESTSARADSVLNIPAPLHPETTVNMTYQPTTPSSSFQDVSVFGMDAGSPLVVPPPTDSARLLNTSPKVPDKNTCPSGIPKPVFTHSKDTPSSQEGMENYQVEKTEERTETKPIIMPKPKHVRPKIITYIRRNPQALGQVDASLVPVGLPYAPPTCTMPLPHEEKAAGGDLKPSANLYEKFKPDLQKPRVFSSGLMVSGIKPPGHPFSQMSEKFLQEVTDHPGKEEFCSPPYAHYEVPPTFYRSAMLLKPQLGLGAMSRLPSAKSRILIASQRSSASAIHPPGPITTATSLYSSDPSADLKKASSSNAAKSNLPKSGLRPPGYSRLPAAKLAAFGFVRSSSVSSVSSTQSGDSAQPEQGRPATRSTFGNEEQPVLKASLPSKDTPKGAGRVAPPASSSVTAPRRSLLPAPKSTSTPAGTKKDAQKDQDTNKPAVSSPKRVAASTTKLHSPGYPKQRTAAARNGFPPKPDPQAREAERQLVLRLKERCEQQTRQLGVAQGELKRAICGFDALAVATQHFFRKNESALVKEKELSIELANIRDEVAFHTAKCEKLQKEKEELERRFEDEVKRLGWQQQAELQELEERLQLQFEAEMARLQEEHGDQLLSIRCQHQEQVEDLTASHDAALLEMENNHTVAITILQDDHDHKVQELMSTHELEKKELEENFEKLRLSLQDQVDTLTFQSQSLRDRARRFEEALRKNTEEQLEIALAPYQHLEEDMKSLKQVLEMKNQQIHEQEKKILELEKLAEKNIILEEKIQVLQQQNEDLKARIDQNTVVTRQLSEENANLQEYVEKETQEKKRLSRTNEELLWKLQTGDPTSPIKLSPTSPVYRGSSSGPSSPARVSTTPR
# UniProt Q5JVF3: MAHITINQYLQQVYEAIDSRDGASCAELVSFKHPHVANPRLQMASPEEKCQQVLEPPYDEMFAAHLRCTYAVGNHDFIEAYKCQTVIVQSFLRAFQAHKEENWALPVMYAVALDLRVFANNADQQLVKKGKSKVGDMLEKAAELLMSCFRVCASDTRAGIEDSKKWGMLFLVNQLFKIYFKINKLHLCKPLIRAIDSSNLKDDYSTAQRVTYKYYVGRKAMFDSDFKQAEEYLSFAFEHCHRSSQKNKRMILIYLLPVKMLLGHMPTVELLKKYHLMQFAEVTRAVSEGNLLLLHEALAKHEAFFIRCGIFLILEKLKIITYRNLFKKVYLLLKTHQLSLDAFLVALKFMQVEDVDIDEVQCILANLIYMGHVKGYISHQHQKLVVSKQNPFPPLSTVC
# UniProt Q5JXB2: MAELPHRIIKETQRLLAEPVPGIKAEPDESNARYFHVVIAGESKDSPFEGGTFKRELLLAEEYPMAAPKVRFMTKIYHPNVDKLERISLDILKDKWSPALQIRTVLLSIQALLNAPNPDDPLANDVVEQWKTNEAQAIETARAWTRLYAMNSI
# UniProt Q49AN0: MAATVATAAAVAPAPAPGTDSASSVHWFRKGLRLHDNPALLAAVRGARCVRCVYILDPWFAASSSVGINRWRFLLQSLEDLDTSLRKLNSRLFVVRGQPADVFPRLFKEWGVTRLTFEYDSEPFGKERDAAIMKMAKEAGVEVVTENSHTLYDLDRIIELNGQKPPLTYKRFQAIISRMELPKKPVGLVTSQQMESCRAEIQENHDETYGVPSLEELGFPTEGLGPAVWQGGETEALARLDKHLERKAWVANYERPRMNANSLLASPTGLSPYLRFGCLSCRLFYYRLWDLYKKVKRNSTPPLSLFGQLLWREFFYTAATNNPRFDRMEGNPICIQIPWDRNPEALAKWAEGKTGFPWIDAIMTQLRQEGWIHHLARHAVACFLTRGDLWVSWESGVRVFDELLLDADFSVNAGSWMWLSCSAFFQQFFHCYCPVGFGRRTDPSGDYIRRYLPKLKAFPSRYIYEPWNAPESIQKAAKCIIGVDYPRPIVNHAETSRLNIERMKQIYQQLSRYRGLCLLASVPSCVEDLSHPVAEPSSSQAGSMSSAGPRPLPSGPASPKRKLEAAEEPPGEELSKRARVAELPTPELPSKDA
# UniProt Q53FZ2: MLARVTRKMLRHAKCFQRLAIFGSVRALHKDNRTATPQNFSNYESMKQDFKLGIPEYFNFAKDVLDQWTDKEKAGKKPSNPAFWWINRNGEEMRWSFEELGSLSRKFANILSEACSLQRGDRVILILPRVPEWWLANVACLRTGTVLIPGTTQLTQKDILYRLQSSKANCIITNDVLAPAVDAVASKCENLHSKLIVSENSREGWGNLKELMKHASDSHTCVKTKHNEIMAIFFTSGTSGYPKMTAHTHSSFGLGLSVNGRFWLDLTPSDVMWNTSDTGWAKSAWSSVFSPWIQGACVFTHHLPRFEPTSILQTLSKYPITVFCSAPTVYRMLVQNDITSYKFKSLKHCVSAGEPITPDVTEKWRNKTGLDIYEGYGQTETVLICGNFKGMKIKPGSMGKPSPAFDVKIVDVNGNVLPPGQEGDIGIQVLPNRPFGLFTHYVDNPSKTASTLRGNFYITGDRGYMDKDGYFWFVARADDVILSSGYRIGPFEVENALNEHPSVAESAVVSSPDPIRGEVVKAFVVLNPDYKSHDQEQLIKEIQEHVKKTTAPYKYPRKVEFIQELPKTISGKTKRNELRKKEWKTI
# UniProt Q5T8I3: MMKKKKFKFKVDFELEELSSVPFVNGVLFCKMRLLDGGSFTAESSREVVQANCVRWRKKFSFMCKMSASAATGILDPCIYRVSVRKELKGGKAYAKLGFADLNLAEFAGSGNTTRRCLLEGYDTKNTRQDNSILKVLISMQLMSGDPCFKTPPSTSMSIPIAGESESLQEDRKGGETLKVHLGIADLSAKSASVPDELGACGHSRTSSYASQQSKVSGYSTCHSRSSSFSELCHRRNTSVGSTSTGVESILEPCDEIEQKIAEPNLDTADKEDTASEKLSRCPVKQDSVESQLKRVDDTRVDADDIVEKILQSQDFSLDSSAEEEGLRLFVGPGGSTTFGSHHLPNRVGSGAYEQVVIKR
# UniProt Q5VT06: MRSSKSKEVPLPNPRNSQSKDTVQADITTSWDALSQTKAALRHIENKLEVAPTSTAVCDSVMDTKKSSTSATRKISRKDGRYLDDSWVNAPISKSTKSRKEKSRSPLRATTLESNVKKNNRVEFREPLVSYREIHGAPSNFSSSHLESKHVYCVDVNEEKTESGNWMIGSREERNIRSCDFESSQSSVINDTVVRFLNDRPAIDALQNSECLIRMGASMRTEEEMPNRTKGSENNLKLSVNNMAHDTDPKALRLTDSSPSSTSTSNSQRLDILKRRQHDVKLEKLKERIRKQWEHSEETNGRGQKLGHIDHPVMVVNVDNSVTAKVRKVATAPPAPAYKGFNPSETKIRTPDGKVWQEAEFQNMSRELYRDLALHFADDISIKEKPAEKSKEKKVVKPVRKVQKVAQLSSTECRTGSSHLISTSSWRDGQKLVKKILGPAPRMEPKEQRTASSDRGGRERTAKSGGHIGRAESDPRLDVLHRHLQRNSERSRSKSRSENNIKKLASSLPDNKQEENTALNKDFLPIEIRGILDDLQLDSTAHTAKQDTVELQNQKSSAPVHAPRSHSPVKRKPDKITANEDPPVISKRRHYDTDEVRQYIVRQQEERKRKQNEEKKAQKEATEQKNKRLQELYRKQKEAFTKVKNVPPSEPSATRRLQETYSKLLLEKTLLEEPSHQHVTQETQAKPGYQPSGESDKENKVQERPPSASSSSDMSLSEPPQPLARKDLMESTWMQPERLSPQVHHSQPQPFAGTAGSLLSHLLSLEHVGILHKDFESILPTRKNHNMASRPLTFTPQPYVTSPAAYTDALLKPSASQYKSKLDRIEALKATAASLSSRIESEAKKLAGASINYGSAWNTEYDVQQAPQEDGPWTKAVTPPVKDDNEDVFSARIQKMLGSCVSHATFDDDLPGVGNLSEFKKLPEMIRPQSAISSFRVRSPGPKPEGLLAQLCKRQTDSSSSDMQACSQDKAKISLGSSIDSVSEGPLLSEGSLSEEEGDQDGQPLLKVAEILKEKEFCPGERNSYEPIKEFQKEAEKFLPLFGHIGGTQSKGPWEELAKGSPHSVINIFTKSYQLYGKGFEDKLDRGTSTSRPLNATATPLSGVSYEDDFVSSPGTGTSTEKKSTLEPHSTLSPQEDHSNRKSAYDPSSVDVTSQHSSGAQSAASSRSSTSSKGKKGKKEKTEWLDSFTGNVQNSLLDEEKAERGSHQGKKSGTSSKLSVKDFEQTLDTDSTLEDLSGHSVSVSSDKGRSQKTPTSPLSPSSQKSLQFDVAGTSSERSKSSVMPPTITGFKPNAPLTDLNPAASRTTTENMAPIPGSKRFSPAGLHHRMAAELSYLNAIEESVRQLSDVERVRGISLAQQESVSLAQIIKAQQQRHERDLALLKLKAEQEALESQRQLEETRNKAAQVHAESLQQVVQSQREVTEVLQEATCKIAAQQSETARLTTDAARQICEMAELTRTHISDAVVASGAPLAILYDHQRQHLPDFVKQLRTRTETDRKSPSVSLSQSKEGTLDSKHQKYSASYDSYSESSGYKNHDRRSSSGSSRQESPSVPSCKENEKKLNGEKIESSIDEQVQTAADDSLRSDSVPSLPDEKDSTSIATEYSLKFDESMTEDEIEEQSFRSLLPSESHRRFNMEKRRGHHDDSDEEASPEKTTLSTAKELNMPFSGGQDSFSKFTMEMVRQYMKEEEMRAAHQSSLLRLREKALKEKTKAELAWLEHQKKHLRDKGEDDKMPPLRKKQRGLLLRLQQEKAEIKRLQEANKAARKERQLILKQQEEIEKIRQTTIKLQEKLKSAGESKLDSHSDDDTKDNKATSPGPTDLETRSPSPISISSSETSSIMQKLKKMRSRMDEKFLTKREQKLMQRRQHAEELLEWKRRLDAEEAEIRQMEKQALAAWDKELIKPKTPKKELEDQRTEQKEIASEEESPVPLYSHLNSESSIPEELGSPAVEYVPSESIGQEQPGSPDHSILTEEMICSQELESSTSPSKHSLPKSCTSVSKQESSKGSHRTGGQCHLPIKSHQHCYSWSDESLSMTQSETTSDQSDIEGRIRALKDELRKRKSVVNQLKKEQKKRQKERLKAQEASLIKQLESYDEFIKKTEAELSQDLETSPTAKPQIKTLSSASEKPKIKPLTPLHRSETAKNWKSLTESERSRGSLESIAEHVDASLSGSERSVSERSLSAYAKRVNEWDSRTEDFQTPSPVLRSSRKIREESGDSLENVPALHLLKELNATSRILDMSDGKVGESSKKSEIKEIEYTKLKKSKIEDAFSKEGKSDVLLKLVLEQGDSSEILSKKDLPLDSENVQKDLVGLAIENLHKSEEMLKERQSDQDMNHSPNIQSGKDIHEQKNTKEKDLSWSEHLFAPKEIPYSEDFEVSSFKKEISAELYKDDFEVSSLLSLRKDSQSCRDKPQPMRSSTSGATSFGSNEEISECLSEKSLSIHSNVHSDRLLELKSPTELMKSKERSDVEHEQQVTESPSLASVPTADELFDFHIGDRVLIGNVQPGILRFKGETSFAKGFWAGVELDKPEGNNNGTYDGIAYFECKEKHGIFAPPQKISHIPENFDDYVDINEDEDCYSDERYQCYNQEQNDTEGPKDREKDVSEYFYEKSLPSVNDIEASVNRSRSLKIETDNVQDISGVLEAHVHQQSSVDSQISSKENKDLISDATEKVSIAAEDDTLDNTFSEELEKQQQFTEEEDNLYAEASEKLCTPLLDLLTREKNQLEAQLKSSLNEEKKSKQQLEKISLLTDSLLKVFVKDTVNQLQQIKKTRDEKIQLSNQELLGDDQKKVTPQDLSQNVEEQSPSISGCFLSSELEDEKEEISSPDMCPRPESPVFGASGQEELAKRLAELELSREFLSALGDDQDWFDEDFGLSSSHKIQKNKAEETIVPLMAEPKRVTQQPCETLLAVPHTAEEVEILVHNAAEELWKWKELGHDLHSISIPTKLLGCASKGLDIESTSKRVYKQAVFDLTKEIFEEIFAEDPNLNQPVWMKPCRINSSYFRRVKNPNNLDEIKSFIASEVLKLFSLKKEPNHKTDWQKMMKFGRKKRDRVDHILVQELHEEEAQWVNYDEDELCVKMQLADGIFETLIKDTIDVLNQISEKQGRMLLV
# The other results are listed elsewhere or left out. Small differences around the control level are noise.
# Compound: Cc1nc(Nc2ncc(C(=O)Nc3c(C)cccc3Cl)s2)cc(N2CCN(CCO)CC2)n1 [dasatinib]
# Assay: log2 fold change of tryptic peptide abundance, ligand vs vehicle (limited proteolysis) (log2 ratio); higher = more trypsin-susceptible (destabilized)
# Conditions: ligand concentration: 5 uM; sample: K562 cleared lysate
row,Target,log2 fold change
1,"TBC1D10B (peptide sequence: ADGPPGPHDGGDRPSAEAR, peptide start residue: 785) (UniProt Q4KMP7)",0.294
2,"UniProt Q4FZB7 (peptide sequence: LSNDHQQNQSK, peptide start residue: 21)",0.226
3,"LYRM7 (peptide sequence: KIEELMK, peptide start residue: 51) (UniProt Q5U5X0)",-0.0934
4,"ALDH1L2 (peptide sequence: LGFTGSTPIGK, peptide start residue: 667) (UniProt Q3SY69)",0.503
5,"UniProt Q5T1B0 (peptide sequence: LLEVENR, peptide start residue: 932)",0.0325
6,"UniProt Q5JPI9 (peptide sequence: EHWDAVYER, peptide start residue: 36)",0.063
7,"UniProt Q5JR59 (peptide sequence: KNESALVKEK, peptide start residue: 1039)",0.136
8,"UniProt Q53F19 (peptide sequence: NVALDRDMMKK, peptide start residue: 108)",0.279
9,"GKAP1 (peptide sequence: EQQQSEANELR, peptide start residue: 64) (UniProt Q5VSY0)",-0.308
10,"TBCEL (peptide sequence: LDQTVAELKK, peptide start residue: 361) (UniProt Q5QJ74)",-0.624
11,"UniProt Q5FWF4 (peptide sequence: KVQTISDCEK, peptide start residue: 677)",-0.792
12,"TRMT12 (peptide sequence: AQGCSPAQK, peptide start residue: 98) (UniProt Q53H54)",0.213
13,"PCID2 (peptide sequence: AIDSSNLKDDYSTAQR, peptide start residue: 194) (UniProt Q5JVF3)",0.163
14,"MIIP (peptide sequence: LFPVPVDPGTPCRLCR, peptide start residue: 249) (UniProt Q5JXC2)",0.14
15,"UBE2NL (peptide sequence: IYHPNVDK, peptide start residue: 75) (UniProt Q5JXB2)",-0.173
16,"BRMS1L (peptide sequence: VKTEPPVKLEK, peptide start residue: 239) (UniProt Q5PSV4)",0.0241
17,"ANKRD39 (peptide sequence: NGHYAVCQFLLESGAK, peptide start residue: 74) (UniProt Q53RE8)",0.125
18,"COX19 (peptide sequence: LGFGDLTSGK, peptide start residue: 76) (UniProt Q49B96)",0.0846
19,"GNAS (peptide sequence: LQEALNLFK, peptide start residue: 909) (UniProt Q5JWF2)",0.305

# Rewritten tab-delimited: entries from further up
row	Target	log2 fold change
16	BRMS1L (peptide sequence: VKTEPPVKLEK, peptide start residue: 239) (UniProt Q5PSV4)	0.0241
17	ANKRD39 (peptide sequence: NGHYAVCQFLLESGAK, peptide start residue: 74) (UniProt Q53RE8)	0.125
18	COX19 (peptide sequence: LGFGDLTSGK, peptide start residue: 76) (UniProt Q49B96)	0.0846

# Carrying on.

row,Target,log2 fold change
1,"UniProt Q5H9R7 (peptide sequence: FDLHSSSHIDTLLEREDVTLK, peptide start residue: 5)",0.776
2,"CRY2 (peptide sequence: LHDNPALLAAVR, peptide start residue: 34) (UniProt Q49AN0)",-0.283
3,"DNLZ (peptide sequence: VEAAHYQLVYTCK, peptide start residue: 64) (UniProt Q5SXM8)",-0.0382
4,"NUP188 (peptide sequence: DGVCVLGLHLAK, peptide start residue: 1280) (UniProt Q5SRE5)",-0.352
5,"ACSM3 (peptide sequence: SHDQEQLIK, peptide start residue: 532) (UniProt Q53FZ2)",0.198
6,"FAM102B (peptide sequence: IAEPNLDTADKEDTASEKLSR, peptide start residue: 261) (UniProt Q5T8I3)",1.16
7,"UniProt Q504T8 (peptide sequence: CHAQCSPASPAPDLAPR, peptide start residue: 332)",-0.467
8,"PITRM1 (peptide sequence: FLHTEIR, peptide start residue: 894) (UniProt Q5JRX3)",-0.313
9,"CEP350 (peptide sequence: GHHDDSDEEASPEK, peptide start residue: 1643) (UniProt Q5VT06)",1.07
10,"UniProt Q5TA45 (peptide sequence: LLHGTLIMK, peptide start residue: 478)",-0.749
11,"DDI2 (peptide sequence: IDFSSIAVPGTSSPR, peptide start residue: 94) (UniProt Q5TDH0)",0.392
12,"UniProt Q5TAX3 (peptide sequence: IDLKPLPPMTNR, peptide start residue: 935)",-0.358
13,"COQ5 (peptide sequence: VYQVFESVAK, peptide start residue: 68) (UniProt Q5HYK3)",0.12
14,"UniProt Q3ZCT1 (peptide sequence: SHTGEKPYGCNECGK, peptide start residue: 233)",0.0185
15,"KLHL12 (peptide sequence: DLVDEAKK, peptide start residue: 250) (UniProt Q53G59)",0.175
16,"CT47A1 (peptide sequence: EPAEEAAEEK, peptide start residue: 210) (UniProt Q5JQC4)",0.193
17,"UniProt Q5JPF3 (peptide sequence: DSDHISTR, peptide start residue: 525)",0.0962
18,"ZMYM1 (peptide sequence: TEPDNAQEYCHR, peptide start residue: 26) (UniProt Q5SVZ6)",-0.833
